The target of assay [1] is T1, 3× FLAG-tagged TRAF6 (not stated (NM_009424.3 is a mouse entry, from memory)) (UniProt P70196).
T1 sequence: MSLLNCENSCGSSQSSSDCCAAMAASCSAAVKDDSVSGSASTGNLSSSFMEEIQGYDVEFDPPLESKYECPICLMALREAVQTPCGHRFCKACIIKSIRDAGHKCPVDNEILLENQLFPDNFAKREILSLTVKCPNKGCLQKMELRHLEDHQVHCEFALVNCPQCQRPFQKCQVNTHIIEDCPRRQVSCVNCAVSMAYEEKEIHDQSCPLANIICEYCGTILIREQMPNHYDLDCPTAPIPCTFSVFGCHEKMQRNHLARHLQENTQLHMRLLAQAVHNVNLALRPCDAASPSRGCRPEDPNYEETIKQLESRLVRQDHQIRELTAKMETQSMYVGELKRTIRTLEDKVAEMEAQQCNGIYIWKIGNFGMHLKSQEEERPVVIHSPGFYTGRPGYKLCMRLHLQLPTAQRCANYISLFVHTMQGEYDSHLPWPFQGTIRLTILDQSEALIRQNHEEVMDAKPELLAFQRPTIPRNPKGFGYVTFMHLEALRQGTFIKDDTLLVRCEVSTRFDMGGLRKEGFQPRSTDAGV
The experiment in a line: co-IP; HEK293T cells co-transfected, 48 h; lysed in CHAPS buffer; IP with anti-FLAG antibody and protein A/G PLUS-agarose at 4 °C; blot with anti-HA and anti-FLAG.

Sequences of proteins named here, by UniProt entry; tags and fusion partners are left off.
UniProt P51150: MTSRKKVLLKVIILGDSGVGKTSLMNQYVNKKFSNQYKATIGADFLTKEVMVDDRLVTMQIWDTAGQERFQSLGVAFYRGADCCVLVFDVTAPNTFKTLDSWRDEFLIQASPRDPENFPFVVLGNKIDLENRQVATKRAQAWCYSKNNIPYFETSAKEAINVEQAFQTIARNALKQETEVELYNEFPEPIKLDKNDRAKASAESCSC

Assay [2] addresses T2, TRAF6 (endogenous, mouse macrophages) (mouse (endogenous in BMDMs and RAW264.7)) (UniProt P70196).
T2 sequence: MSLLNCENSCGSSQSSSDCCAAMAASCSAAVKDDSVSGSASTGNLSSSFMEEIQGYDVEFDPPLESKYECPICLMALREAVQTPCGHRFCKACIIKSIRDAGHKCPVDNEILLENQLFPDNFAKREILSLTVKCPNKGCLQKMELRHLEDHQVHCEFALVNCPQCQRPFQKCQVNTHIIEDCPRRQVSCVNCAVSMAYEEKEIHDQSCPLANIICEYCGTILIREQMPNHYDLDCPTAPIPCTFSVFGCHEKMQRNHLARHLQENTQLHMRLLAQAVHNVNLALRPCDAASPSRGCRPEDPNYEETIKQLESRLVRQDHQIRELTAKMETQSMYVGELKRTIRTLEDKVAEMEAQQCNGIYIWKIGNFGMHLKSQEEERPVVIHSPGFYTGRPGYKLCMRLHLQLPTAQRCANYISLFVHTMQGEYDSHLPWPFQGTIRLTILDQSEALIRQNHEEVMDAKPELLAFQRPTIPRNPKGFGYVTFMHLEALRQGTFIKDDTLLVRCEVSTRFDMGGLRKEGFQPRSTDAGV
The experiment in a line: co-IP.

For a further assay, the target named is 5× HA-tagged Rab7 (UniProt P51150). Put plainly: co-IP; HEK293T cells co-transfected, 48 h (for Rab7-STX17 with or without FLAG-TRAF6 or TRAF6 4#); lysed in CHAPS buffer; IP with anti-HA antibody and protein A/G PLUS-agarose at 4 °C; blot with the indicated antibodies.
The target in assay [3] is Rab7 (endogenous, mouse macrophages) (mouse (endogenous in BMDMs and RAW264.7)) (UniProt P51150). The experiment in a line: co-IP.

Results are given in words; binding and its absence hold for the method and conditions named. Binding seen in cells or lysates may run through a third protein. Some binding calls cover weakened binding; strength is not graded here. For some assays here: Tags and fused reporters may be left off the sequences shown.

Turning to “5× HA-tagged Rab7 (from UniProt P51150 1-207)”, the binding result in assay [1] is reported as “binds”.

B1: STX17 (syntaxin 17; endogenous, mouse macrophages) (protein, UniProt Q9D0I4 1-301)
chain: MSEDEEKVKLRRLEPAIQKFTKIVIPTDLERLRKHQINIEKYQRCRIWDKLHEEHINAGRTVQQLRSNIREMEKLCLKVHKDDLVLLKRMIDPVKEAAATATAEFLQLHLESVEELKKQVNDEELLQPSLTRSTTVDGVLHTGEAEAASQSLTQIYALPEIPQDQNAAESWETLEADLIELSHLVTDMSLLVSSQQEKIDSIADHVNSAAVNVEEGTKNLQKAAKYKLAALPVAGALIGGVVGGPIGLLAGFKVAGIAAALGGGVLGFTGGKLIQRRKQKMMEKLTSSCPDLPSQSDKKRS
In the case of B1, in assay [2], the binding result was “binds”.

B2: STX17 (overexpressed in HEK293T cells) (protein, UniProt Q9D0I4 1-301)
chain: MSEDEEKVKLRRLEPAIQKFTKIVIPTDLERLRKHQINIEKYQRCRIWDKLHEEHINAGRTVQQLRSNIREMEKLCLKVHKDDLVLLKRMIDPVKEAAATATAEFLQLHLESVEELKKQVNDEELLQPSLTRSTTVDGVLHTGEAEAASQSLTQIYALPEIPQDQNAAESWETLEADLIELSHLVTDMSLLVSSQQEKIDSIADHVNSAAVNVEEGTKNLQKAAKYKLAALPVAGALIGGVVGGPIGLLAGFKVAGIAAALGGGVLGFTGGKLIQRRKQKMMEKLTSSCPDLPSQSDKKRS
As to B2, in the assay with 5× HA-tagged Rab7, the binding result is reported as “binds”.

B3: 3× FLAG-tagged TRAF6 (protein, UniProt P70196-1 1-530)
chain: MSLLNCENSCGSSQSSSDCCAAMAASCSAAVKDDSVSGSASTGNLSSSFMEEIQGYDVEFDPPLESKYECPICLMALREAVQTPCGHRFCKACIIKSIRDAGHKCPVDNEILLENQLFPDNFAKREILSLTVKCPNKGCLQKMELRHLEDHQVHCEFALVNCPQCQRPFQKCQVNTHIIEDCPRRQVSCVNCAVSMAYEEKEIHDQSCPLANIICEYCGTILIREQMPNHYDLDCPTAPIPCTFSVFGCHEKMQRNHLARHLQENTQLHMRLLAQAVHNVNLALRPCDAASPSRGCRPEDPNYEETIKQLESRLVRQDHQIRELTAKMETQSMYVGELKRTIRTLEDKVAEMEAQQCNGIYIWKIGNFGMHLKSQEEERPVVIHSPGFYTGRPGYKLCMRLHLQLPTAQRCANYISLFVHTMQGEYDSHLPWPFQGTIRLTILDQSEALIRQNHEEVMDAKPELLAFQRPTIPRNPKGFGYVTFMHLEALRQGTFIKDDTLLVRCEVSTRFDMGGLRKEGFQPRSTDAGV
With B3, in the assay with 5× HA-tagged Rab7, the binding entry was “binds”.

B4: TRAF6 (endogenous, mouse macrophages) (protein, UniProt P70196 1-530)
chain: MSLLNCENSCGSSQSSSDCCAAMAASCSAAVKDDSVSGSASTGNLSSSFMEEIQGYDVEFDPPLESKYECPICLMALREAVQTPCGHRFCKACIIKSIRDAGHKCPVDNEILLENQLFPDNFAKREILSLTVKCPNKGCLQKMELRHLEDHQVHCEFALVNCPQCQRPFQKCQVNTHIIEDCPRRQVSCVNCAVSMAYEEKEIHDQSCPLANIICEYCGTILIREQMPNHYDLDCPTAPIPCTFSVFGCHEKMQRNHLARHLQENTQLHMRLLAQAVHNVNLALRPCDAASPSRGCRPEDPNYEETIKQLESRLVRQDHQIRELTAKMETQSMYVGELKRTIRTLEDKVAEMEAQQCNGIYIWKIGNFGMHLKSQEEERPVVIHSPGFYTGRPGYKLCMRLHLQLPTAQRCANYISLFVHTMQGEYDSHLPWPFQGTIRLTILDQSEALIRQNHEEVMDAKPELLAFQRPTIPRNPKGFGYVTFMHLEALRQGTFIKDDTLLVRCEVSTRFDMGGLRKEGFQPRSTDAGV
As to B4, in assay [3], the binding result was “binds”.

For the origin of these results see article PMC10684575.
